For assay [1], the target named is human epidermal growth factor 2 (HER2) receptor (human (endogenous in MDA-MB-453, MDA-MB-435 Br, MCF-7)) (UniProt P04626). The assay can be described thus: flow cytometry on cells; reversed combined CF-labelled peptide on cells (Figure 6D,E); cell line, concentration and time are not told for these panels; only the binder purified.
For assay [2] the target is unchanged. In words: flow cytometry on cells; blocking experiment: MDA-MB-453 cells preincubated with unlabeled peptide (65 µM, 30 min) before the corresponding CF-labelled peptide (12.5 or 6.25 µM, 3 h); only the binder purified. Background: A flow cytometer gives signals particle by particle.
Assay [3] has the same target. The assay can be described thus: flow cytometry on cells; MDA-MB-453 cells incubated with CF-labelled peptides, 12.5 µM, 3 h, 37 °C, 5 min trypsinization; read-out percentage of CF+ live cells and mean fluorescence intensity; only the binder purified.
The target is the same in assay [4]. In words: flow cytometry on cells; MDA-MB-435 Br and MCF-7 cells (medium HER2 expression), with HCC1143 cells (HER2 under the detection limit) as negative control; CF-labelled compounds 12.5 µM, 3 h; only the binder purified.

No constants are given. Whether binding was seen depends on the method and setting. Some results given as binding are weak or reduced against the parent protein; the word gives no strength.

Consider GYYNPTKAAYSL (5(6)-carboxyfluorescein (CF) on the N-terminus; C-terminal amide), for which the binding entry in assay [1] is recorded as “binds weakly”. Take KSCYSLGYYNPT (5(6)-carboxyfluorescein (CF) on the N-terminus; C-terminal amide): the binding entry in assay [2] and in assay [3] was “binds” each time. Turning to KAAYSLGYYNPT (C-terminal amide), in assay [2], the binding result is given as “binds”. Turning to KAAYSLGYYNPT (5(6)-carboxyfluorescein (CF) on the N-terminus; C-terminal amide), the binding result in assay [2] and in assay [4] was “binds” each time. With KSCYSLGYYNPT (C-terminal amide), in assay [2], the binding entry is on record as “binds”.

The values are drawn from publication PMC7072344, “Structure–Activity Relationship of HER2 Receptor Targeting Peptide and Its Derivatives in Targeted Tumor Therapy” (Biomolecules, 2020).
